The structures appear in SMILES notation. Over roughly 1,600 compounds, “Hit score” has its median near 0.13; the highest 2% begin near 0.46. The list shows a part of the results.

The assay has as its system SARS-CoV-2. The assay can be described thus: Antiviral activity against SARS-CoV-2 (USA-WA1/2020 strain) measured by imaging in HRCE cells at MOI 0.4 after 96 hrs (reported as hit score from 0-1 for on-disease vs off-disease activity: scores >0.6 considered hits). The format is functional, Homo sapiens.
As for `C/C=C/C[C@@H](C)[C@@H](O)[C@H]1C(=O)N[C@@H](CC)C(=O)N(C)CC(=O)N(C)[C@@H](CC(C)C)C(=O)N[C@@H](C(C)C)C(=O)N(C)[C@@H](CC(C)C)C(=O)N[C@@H](C)C(=O)N[C@H](C)C(=O)N(C)[C@@H](CC(C)C)C(=O)N(C)[C@@H](CC(C)C)C(=O)N(C)[C@@H](C(C)C)C(=O)N1C` [CYCLOSPORINE], the Hit score came out at 0.07198.

In the case of `C[C@H](O)C(=O)Nc1c(I)c(C(=O)NC(CO)CO)c(I)c(C(=O)NC(CO)CO)c1I` [IOPAMIDOL], the Hit score was 0.1622.

`CN(C)C(=O)Oc1cc(OC(=O)N(C)C)cc(C(O)CNC(C)(C)C)c1` (stereo not drawn) [BAMBUTEROL] yielded a Hit score of 0.1323.

For `CC1=Nc2ccc(Cl)cc2S(=O)(=O)N1` [DIAZOXIDE], the Hit score stood at 0.1379.

`CC(C(=O)O)c1ccc(N2Cc3ccccc3C2=O)cc1` (stereo not drawn) [INDOPROFEN] displayed a Hit score of 0.1093.

The compound `CN(C)CCOc1ccc(/C(=C(/CCCl)c2ccccc2)c2ccccc2)cc1` [TOREMIFENE] came in with a Hit score of 0.1498.

As for `Cc1ccc(Cl)c(Nc2ccccc2C(=O)O)c1Cl` [MECLOFENAMIC ACID], the Hit score stood at 0.221.

Regarding `CCCc1nc(C)c2c(=O)nc(-c3cc(S(=O)(=O)N4CCN(CC)CC4)ccc3OCC)[nH]n12`, the Hit score was 0.1574.

Consider `COc1cc2nccc(Oc3ccc(NC(=O)C4(C(=O)Nc5ccc(F)cc5)CC4)cc3)c2cc1OC` [CABOZANTINIB], for which the Hit score was 0.3291.

`CCN(CC)Cc1nccn1-c1ccc([N+](=O)[O-])cc1C(=O)c1ccccc1Cl` [NIZOFENONE] yielded a Hit score of 0.2727.

With `O=C(O)/C=C/c1ccc(Cn2ccnc2)cc1` [OZAGREL], the Hit score was determined as 0.1126.

`C[n+]1ccccc1/C=N/O.[Cl-]` [PRALIDOXIME CHLORIDE] returned a Hit score of 0.1477.

Consider `CCCCNc1ccc(C(=O)OCCOCCOCCOCCOCCOCCOCCOCCOCCOC)cc1` [BENZONATATE], for which the Hit score was 0.09156.

The compound `CC(C)(Oc1ccc(C(=O)c2ccc(Cl)cc2)cc1)C(=O)O` [FENOFIBRIC ACID] yielded a Hit score of 0.1298.

Compound `COCCOC(=O)C1=C(C)NC(C)=C(C(=O)OC/C=C/c2ccccc2)C1c1cccc([N+](=O)[O-])c1` (stereo not drawn) [CILNIDIPINE] gave a Hit score of 0.1713.

For `O=S1(=O)OC(c2ccc(O)cc2)(c2ccc(O)cc2)c2ccccc21` [PHENOLSULFONPHTHALEIN], the Hit score came out at 0.07808.

In turn, `CCOc1nc2cccc(C(=O)O)c2n1Cc1ccc(-c2ccccc2-c2noc(=O)[nH]2)cc1` [AZILSARTAN] displayed a Hit score of 0.1513.

As to `CCn1nc(C(=O)O)c(=O)c2cc3c(cc21)OCO3` [CINOXACIN], the Hit score was determined as 0.1945.

Regarding `O=C(O)CCCc1ccccc1` [PHENYLBUTANOIC ACID], the Hit score is given as 0.1706.

The compound `CC(C)NCC(O)COc1ccc(CC(N)=O)cc1` (racemic) [ATENOLOL] gave a Hit score of 0.2191.

In turn, `Cc1cnc(NC(=O)C2=C(O)c3ccccc3S(=O)(=O)N2C)s1` [MELOXICAM] showed a Hit score of 0.07638.

Turning to `O=C(O)COC(=O)Cc1ccccc1Nc1c(Cl)cccc1Cl` [ACECLOFENAC], the Hit score was -0.08079.

`CCN1CCN(c2cc3c(cc2F)c(=O)c(C(=O)O)cn3C2CC2)CC1` [ENROFLOXACIN] came in with a Hit score of -0.1246.

`COc1cc(NS(C)(=O)=O)ccc1Nc1c2ccccc2nc2ccccc12` [AMSACRINE] registered a Hit score of -0.1254.

`C[C@]12C=CC(=O)C=C1CC[C@@H]1[C@@H]2C(=O)C[C@@]2(C)[C@H]1CC[C@]2(O)C(=O)CO` [PREDNISONE] displayed a Hit score of 0.264.

The compound `Cc1nnc(NS(=O)(=O)c2ccc(N)cc2)s1` [SULFAMETHIZOLE] displayed a Hit score of 0.1221.

For the compound `CCCCc1nc(Cl)c(C(=O)O)n1Cc1ccc(-c2ccccc2-c2nn[nH]n2)cc1` [CARBOXYLIC ACID METABOLITE], the Hit score is on record as 0.01747.

For the compound `C[C@H]1CN(C[C@H](Cc2ccccc2)C(=O)NCC(=O)O)CC[C@@]1(C)c1cccc(O)c1` [ALVIMOPAN], the Hit score is 0.1062.

Source of the values: ChEMBL document CHEMBL4303122, “Identification of potential treatments for COVID-19 through artificial intelligence-enabled phenomic analysis of human cells infected with SARS-CoV-2” (2020).
